# Measurements taken from PubChem BioAssay AID588499 (NMMLSC, 2011).
# Out of some 360,000 compounds screened, about 610 (0.17%) were called active. This list was built around the results that the source calls inconclusive (neither active nor inactive); the mix of calls is not that of the screen. Cut-off read from the data, not from the text of the source: active = inhibition above about 30%; inconclusive = no clear call, values can overlap the other calls; inactive = below that.
# System: Botulinum neurotoxin type A light chain protease (Clostridium botulinum A str. ATCC 3502)
# Experiment: blockers of BoNT/A LC substrate cleavage – biochemical, flow cytometry, MLPCN library, primary screen (AID 588499); note: plate controls were buffer without enzyme for full effect and enzyme alone for no effect
# Conditions: multiplex microsphere protease substrate cleavage, at 10 µM, hits give high values
row,Structure (SMILES),inhibition
1,O=C(NCC(=O)N1CCC(Cc2ccccc2)CC1)c1ccc(Cl)cc1,inconclusive: 14.1%
2,Cc1ccc(C(=O)N/N=C/c2cn(Cc3ccccc3)c3ccccc23)cn1,inconclusive: -78.4%
3,CC1CN(c2ccc(NC(=O)c3ccco3)cc2C(=O)O)CC(C)O1 (stereo not given),inconclusive: -1.1%
4,Cc1nn(C(C)(C)C)c(OC(=O)c2cccs2)c1Sc1ccccc1,inconclusive: -0.9%
5,O=C(NNc1ccccc1[N+](=O)[O-])Nc1ccccc1,inconclusive: 2.3%
6,Cc1noc(C)c1C(=O)OC(C)C(=O)N(C)c1ccccc1 (stereo not given),inconclusive: 5%
7,CCCc1nc2c(C)ccc(C)c2c(N)c1CC,inconclusive: 3.4%
8,Cc1onc(-c2ccccc2)c1CNS(=O)(=O)c1ccc(F)cc1F,inconclusive: -9.3%
9,CCc1c(C)nc(N)nc1N1N=C1SCC(N)=O,inconclusive: 0.6%
10,COc1cccc(/C=C(/C#N)c2ccc(F)cc2)c1OCc1cccc(C(=O)O)c1,inactive: 0.7%
11,CCc1ccc(Nc2c([N+](=O)[O-])c(=O)oc3ccccc23)cc1,inconclusive: 1.5%
12,COc1ccccc1CNCC(O)(c1ccc(Cl)cc1)c1ccc(Cl)cc1,inconclusive: -3.3%
13,O=C(c1cccc(OC2CCN(Cc3ccc(F)cc3Cl)CC2)c1)N1CCCC1,inactive: -4.7%
14,Cc1cc(C)c2c(c1)NC(c1cc3c(cc1Br)OCO3)C1CC=CC21 (stereo not given),inactive: 3.8%
15,Cc1nnc(NC(=O)C2CCN(c3nnnn3-c3ccccc3)CC2)s1,inconclusive: 2.4%
16,Fc1cccc(Cc2c(C3CCCCC3)nc3ccc(Br)cn23)c1,inactive: 5.2%
17,CCN1/C(=C\c2ccc3ccccc3[n+]2CC)Sc2cc(C)ccc21,active: 71.1%
18,CCC(Sc1nc2cc3c(cc2c(=O)n1Cc1ccco1)OCO3)C(=O)Nc1ccccc1OC (stereo not given),inconclusive: -1.8%
19,COc1ccc(C(CNc2nc(-c3cccnc3)nc3ccccc23)N(C)C)cc1 (stereo not given),inactive: 5.6%
20,CC(=O)c1ccccc1NC(=O)COC(=O)CN1C(=O)C2CCCCC2C1=O (stereo not given),inactive: 1.6%

row,Structure (SMILES),inhibition
1,O=C(NNC(=O)c1ccc(S(=O)(=O)N2CCOCC2)cc1)c1ccccc1,inactive: 1.8%
2,CCn1c(SCC(=O)Nc2ccccc2C)nc2nc3c(cc2c1=O)COC(C)(C)C3,inconclusive: -34%
3,O=C(CCNc1ccc(F)cc1)c1cccc([N+](=O)[O-])c1,inconclusive: 1.4%
4,O=C(C[n+]1cc(Br)cc2ccccc21)c1ccc(F)cc1,active: 120%
5,O=C(O)c1oc2ccccc2c1-n1cccc1,inactive: -1.7%
6,Cc1cc(C(=O)NCC2CCCO2)sc1C (stereo not given),inconclusive: -8.6%
7,COc1ccc(CCNC(=O)c2sc3nc4n(c(=O)c3c2C)CCC4)cc1,inconclusive: 4.6%
8,CC(NC(=O)c1cccc(C(F)(F)F)c1)C1CCCO1 (stereo not given),inconclusive: 1.3%
9,COc1ccc2nc(NC(=O)c3ccc4ncsc4c3)sc2c1,inactive: -0.6%
10,CCc1cccc(C)c1NC(=O)C1CC(=O)N(C2CCCC2)C1 (stereo not given),inactive: 0.8%
11,OCCNc1ncnc2c1ncn2[C@H]1CN(Cc2ccc3c(c2)OCO3)C[C@@H](CO)O1,inactive: -0.4%
12,CCCN1CCc2c(sc3nc(SCC)n(-c4ccc(OC)cc4)c(=O)c23)C1,active: 40.3%
13,O=C(Nc1nnc(C2CCCC2)s1)C1CCN(S(=O)(=O)c2ccc(Cl)cc2)CC1,inconclusive: -3.5%
14,CCOC(=O)N1CCN(C(=O)CSCc2ccccc2)CC1,inactive: -0.4%
15,CCc1noc(C)c1C(=O)N1CCCSC1=Nc1ccccc1C(C)C,inconclusive: -3.5%
16,CN(C)c1ccc(/C=C/c2cc[n+](C)c3ccccc23)cc1,inconclusive: 1.8%
17,O=C(O)c1ccccc1-c1ccccc1C(=O)Nc1ccccc1-c1ccccc1,inconclusive: 4%
18,N#CC(C#N)=C(N)Nc1cccc(Cl)c1,inconclusive: -53.4%
19,Cc1ccnc(N/C=C(\C#N)c2nc(-c3cccc(Br)c3)cs2)c1,active: 55.7%
20,Cc1ccc(C2CC2c2n[nH]c(=S)n2-c2ccc(C)cc2)cc1 (stereo not given),inconclusive: -3%

row,Structure (SMILES),inhibition
1,COc1ccc(-c2noc(-c3ccccc3C(=O)Nc3cccnc3)n2)cc1OC,inactive: 0.9%
2,CC(/C=N/n1c(-c2cccnc2)n[nH]c1=S)=C\c1ccccc1,inactive: -0.2%
3,CCOc1ccc(Nc2nnc(SCc3nc4ccccc4c(=O)[nH]3)s2)cc1,inactive: -1.4%
4,CCN(CC)CCN1C(=O)C(=O)/C(=C(/O)c2ccc(S(=O)(=O)N3CCOCC3)cc2)C1c1ccc(C)cc1 (stereo not given),inactive: -4.4%
5,CC(=O)Nc1nonc1-c1ccccc1,inconclusive: -1.9%
6,N#CC1(C#N)[C@@H](C(=O)C23CC4CC(CC(C4)C2)C3)C12CCOCC2,inactive: -0.1%
7,c1ccc(C2OC3c4cccc5cccc(c45)C3N2c2ccccc2)cc1 (stereo not given),inconclusive: -0.9%
8,COc1ccc(CN(Cc2cc3ccc(C)cc3[nH]c2=O)Cc2nnnn2C2CCCC2)cc1,inconclusive: 2.4%
9,CC(NC(=O)C(Cc1ccccc1)NC(=O)c1ccccc1)C(=O)O (stereo not given),inconclusive: -1%
10,N#CC1(NC(=O)Cn2cc(C(F)(F)F)ccc2=O)CCCC1,inactive: -0.4%
11,CCOC(=O)c1oc2ccccc2c1CSc1nnnn1-c1ccc(OC)cc1,inconclusive: 2%
12,O=C(Cn1nc(C(F)(F)F)c2c1CCCC2)NCCN1CCOCC1,inconclusive: 33.6%
13,O=C(Nc1nc(-c2ccccc2)cs1)C1CCCO1 (stereo not given),inconclusive: -3.1%
14,CCCCc1ccc(C(=O)NC(C(=O)O)C(C)C)cc1 (stereo not given),active: 31.2%
15,Nc1nncn1C(=O)CCc1ccccc1,inconclusive: -0.3%
16,Cc1cccc(C)c1-n1nnnc1S(=O)(=O)Cc1ccccc1Cl,inconclusive: 0.3%
17,Cc1cc(NC(=O)Cn2cc(C(F)(F)F)cc(Cl)c2=O)no1,inconclusive: -6%
18,CC(C)N(C(=O)COC(=O)CNC(=O)c1ccc(Br)cc1)c1ccccc1,inactive: 0.1%
19,COc1ccc(-c2noc(-c3cccs3)n2)cc1OC,inactive: -0.4%
20,CC(=O)NCc1c(Cl)cccc1-n1cccc1,inconclusive: -1.4%

# Reformatted: results already given
row | Structure (SMILES) | inhibition
1 | COc1ccc(-c2noc(-c3ccccc3C(=O)Nc3cccnc3)n2)cc1OC | inactive: 0.9%
2 | CC(/C=N/n1c(-c2cccnc2)n[nH]c1=S)=C\c1ccccc1 | inactive: -0.2%
3 | CCOc1ccc(Nc2nnc(SCc3nc4ccccc4c(=O)[nH]3)s2)cc1 | inactive: -1.4%
4 | CCN(CC)CCN1C(=O)C(=O)/C(=C(/O)c2ccc(S(=O)(=O)N3CCOCC3)cc2)C1c1ccc(C)cc1 (stereo not given) | inactive: -4.4%
5 | CC(=O)Nc1nonc1-c1ccccc1 | inconclusive: -1.9%
7 | c1ccc(C2OC3c4cccc5cccc(c45)C3N2c2ccccc2)cc1 (stereo not given) | inconclusive: -0.9%
8 | COc1ccc(CN(Cc2cc3ccc(C)cc3[nH]c2=O)Cc2nnnn2C2CCCC2)cc1 | inconclusive: 2.4%
9 | CC(NC(=O)C(Cc1ccccc1)NC(=O)c1ccccc1)C(=O)O (stereo not given) | inconclusive: -1%
11 | CCOC(=O)c1oc2ccccc2c1CSc1nnnn1-c1ccc(OC)cc1 | inconclusive: 2%
12 | O=C(Cn1nc(C(F)(F)F)c2c1CCCC2)NCCN1CCOCC1 | inconclusive: 33.6%
13 | O=C(Nc1nc(-c2ccccc2)cs1)C1CCCO1 (stereo not given) | inconclusive: -3.1%
14 | CCCCc1ccc(C(=O)NC(C(=O)O)C(C)C)cc1 (stereo not given) | active: 31.2%
15 | Nc1nncn1C(=O)CCc1ccccc1 | inconclusive: -0.3%
16 | Cc1cccc(C)c1-n1nnnc1S(=O)(=O)Cc1ccccc1Cl | inconclusive: 0.3%
17 | Cc1cc(NC(=O)Cn2cc(C(F)(F)F)cc(Cl)c2=O)no1 | inconclusive: -6%
19 | COc1ccc(-c2noc(-c3cccs3)n2)cc1OC | inactive: -0.4%
20 | CC(=O)NCc1c(Cl)cccc1-n1cccc1 | inconclusive: -1.4%
